Measurements taken from article PMC7570948 (2020).
Results are given in words; binding and its absence hold for the method and conditions named. In cells and extracts the contact can be indirect. Some binding calls cover weakened binding; strength is not graded here. For some assays here: Sequences can lack the tags named with a protein.

The chains behind the UniProt entries cited, without tags or fusion partners. Residues count along the entry.
UniProt P51681: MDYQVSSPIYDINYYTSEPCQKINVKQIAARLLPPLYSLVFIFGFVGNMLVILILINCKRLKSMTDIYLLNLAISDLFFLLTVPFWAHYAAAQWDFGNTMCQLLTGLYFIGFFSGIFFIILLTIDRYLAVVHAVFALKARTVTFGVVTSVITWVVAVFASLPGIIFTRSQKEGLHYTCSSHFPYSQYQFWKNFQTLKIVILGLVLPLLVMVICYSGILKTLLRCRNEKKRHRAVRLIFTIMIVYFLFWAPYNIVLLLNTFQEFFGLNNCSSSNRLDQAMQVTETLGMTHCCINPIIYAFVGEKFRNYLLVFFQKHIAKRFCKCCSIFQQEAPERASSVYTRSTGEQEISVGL
UniProt P32248, residues 25-378: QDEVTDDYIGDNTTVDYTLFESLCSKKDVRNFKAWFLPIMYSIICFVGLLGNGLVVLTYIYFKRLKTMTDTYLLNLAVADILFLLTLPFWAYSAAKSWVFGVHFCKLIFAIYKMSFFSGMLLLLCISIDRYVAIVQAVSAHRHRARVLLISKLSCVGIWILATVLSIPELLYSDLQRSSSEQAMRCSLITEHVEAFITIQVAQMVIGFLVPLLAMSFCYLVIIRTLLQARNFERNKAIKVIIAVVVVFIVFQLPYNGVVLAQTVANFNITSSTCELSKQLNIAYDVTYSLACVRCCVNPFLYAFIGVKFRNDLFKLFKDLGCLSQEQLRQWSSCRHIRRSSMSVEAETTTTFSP
UniProt P51685: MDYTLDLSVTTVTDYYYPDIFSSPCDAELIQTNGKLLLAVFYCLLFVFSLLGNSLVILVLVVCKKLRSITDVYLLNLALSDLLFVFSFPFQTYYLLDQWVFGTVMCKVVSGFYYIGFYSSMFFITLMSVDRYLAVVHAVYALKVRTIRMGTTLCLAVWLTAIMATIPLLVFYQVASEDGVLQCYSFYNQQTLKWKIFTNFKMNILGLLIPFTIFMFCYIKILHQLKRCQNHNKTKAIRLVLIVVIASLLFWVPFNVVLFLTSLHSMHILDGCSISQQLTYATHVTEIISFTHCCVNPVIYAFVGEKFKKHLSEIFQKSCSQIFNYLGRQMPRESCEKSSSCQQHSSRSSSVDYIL
UniProt P49238: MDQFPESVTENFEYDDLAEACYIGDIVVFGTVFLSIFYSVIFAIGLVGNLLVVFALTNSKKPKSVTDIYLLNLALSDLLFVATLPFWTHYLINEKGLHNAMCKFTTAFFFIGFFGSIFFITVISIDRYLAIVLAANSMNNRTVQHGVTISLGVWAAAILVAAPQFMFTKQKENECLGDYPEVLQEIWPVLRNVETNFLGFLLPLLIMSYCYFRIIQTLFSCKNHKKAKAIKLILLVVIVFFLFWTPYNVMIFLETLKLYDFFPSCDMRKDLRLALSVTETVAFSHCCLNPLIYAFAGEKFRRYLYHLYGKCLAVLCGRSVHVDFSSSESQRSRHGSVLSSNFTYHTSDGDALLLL
UniProt P32302: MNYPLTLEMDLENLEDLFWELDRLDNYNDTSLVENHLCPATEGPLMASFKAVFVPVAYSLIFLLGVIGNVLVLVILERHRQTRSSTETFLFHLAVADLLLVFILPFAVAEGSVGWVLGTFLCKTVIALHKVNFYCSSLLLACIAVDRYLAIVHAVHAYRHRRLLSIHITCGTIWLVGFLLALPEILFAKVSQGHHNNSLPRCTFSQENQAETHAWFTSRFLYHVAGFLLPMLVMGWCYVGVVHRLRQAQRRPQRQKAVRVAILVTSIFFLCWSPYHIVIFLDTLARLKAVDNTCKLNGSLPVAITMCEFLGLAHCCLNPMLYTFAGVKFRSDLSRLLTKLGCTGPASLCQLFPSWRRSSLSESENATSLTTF
UniProt O00574: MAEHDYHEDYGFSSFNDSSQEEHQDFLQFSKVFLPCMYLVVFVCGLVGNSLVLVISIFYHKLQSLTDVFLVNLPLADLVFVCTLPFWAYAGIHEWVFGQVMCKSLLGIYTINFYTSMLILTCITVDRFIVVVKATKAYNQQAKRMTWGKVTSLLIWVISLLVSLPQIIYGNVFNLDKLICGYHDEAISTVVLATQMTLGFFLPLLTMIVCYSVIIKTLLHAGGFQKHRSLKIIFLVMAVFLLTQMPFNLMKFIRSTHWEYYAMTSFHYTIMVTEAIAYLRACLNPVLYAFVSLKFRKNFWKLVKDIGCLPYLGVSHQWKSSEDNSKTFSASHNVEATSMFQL
UniProt P32121: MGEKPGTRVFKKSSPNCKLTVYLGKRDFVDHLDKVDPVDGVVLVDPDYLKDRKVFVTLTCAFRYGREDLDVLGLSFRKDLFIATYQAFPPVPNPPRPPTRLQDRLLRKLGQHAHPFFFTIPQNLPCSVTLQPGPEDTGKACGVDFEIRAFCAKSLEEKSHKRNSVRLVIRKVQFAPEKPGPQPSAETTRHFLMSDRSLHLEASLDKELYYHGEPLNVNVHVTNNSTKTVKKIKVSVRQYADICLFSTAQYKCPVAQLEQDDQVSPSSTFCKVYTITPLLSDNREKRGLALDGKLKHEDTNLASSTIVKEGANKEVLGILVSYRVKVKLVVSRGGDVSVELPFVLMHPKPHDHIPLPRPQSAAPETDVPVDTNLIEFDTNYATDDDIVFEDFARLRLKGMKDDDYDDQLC

Legend:
Assay in all cases: split reporter; NanoLuc complementation in live HEK293T cells co-transfected with receptor-SmBiT and LgBiT-β-arrestin-2; recruitment induced by 200 nM of one known agonist chemokine (screen) or by a concentration series of CCL19 (CCR7); luminescence read for 20 min
[1] = biological target: T1, ACKR2 C-terminally tagged to SmBiT (human) (UniProt O00590)
T1 sequence: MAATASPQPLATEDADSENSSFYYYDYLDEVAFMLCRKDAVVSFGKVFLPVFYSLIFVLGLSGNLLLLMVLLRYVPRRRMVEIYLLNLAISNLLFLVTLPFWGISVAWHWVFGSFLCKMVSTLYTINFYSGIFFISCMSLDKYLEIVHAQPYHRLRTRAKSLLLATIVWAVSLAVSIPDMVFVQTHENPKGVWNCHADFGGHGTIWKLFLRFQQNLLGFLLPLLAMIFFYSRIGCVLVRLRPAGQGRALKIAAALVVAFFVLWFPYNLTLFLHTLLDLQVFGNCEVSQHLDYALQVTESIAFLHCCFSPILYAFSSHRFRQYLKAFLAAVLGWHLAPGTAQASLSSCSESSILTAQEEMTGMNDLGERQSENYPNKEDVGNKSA

[2] = biological target: T2, CCR1 C-terminally tagged to SmBiT (human) (UniProt P32246)
T2 sequence: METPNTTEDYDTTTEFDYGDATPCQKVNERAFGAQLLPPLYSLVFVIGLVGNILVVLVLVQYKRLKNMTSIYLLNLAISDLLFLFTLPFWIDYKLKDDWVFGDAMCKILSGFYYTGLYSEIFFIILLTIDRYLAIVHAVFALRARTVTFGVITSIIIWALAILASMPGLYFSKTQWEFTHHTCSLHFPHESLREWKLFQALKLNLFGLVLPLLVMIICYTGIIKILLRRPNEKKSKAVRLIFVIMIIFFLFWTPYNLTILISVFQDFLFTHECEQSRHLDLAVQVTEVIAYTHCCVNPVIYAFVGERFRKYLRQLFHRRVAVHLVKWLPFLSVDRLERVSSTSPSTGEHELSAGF

[3] = biological target: T3, CCR10 C-terminally tagged to SmBiT (human) (UniProt P46092)
T3 sequence: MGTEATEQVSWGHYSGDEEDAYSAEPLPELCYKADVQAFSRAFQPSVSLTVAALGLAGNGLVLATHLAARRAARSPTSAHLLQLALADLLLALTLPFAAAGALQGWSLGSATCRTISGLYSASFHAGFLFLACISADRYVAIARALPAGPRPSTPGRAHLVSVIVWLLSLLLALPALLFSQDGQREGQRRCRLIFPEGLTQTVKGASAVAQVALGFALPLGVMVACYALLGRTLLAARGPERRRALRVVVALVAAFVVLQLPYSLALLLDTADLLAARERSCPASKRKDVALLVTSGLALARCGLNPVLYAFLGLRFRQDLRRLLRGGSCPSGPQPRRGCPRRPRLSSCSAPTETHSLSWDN

[4] = biological target: T4, CCR3 C-terminally tagged to SmBiT (human) (UniProt P51677)
T4 sequence: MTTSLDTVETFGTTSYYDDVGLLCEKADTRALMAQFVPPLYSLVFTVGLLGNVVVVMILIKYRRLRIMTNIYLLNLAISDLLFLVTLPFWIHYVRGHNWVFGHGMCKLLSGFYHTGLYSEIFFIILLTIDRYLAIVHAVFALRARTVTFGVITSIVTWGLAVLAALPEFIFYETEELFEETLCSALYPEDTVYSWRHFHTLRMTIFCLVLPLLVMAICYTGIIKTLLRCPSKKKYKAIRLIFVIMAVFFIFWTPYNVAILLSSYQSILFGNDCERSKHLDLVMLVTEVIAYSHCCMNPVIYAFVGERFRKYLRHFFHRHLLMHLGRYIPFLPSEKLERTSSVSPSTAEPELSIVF

[5] = biological target: T5, CCR4 C-terminally tagged to SmBiT (human) (UniProt P51679)
T5 sequence: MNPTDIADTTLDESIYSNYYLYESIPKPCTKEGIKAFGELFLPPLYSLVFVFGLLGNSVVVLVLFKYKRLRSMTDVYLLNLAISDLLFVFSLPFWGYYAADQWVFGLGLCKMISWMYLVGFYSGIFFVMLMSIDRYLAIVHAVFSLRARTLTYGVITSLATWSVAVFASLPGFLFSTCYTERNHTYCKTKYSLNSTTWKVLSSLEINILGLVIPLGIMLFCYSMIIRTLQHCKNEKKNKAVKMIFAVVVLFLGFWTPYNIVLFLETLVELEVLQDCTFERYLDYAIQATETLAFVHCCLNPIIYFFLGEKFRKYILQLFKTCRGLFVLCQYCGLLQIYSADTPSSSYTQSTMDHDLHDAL

[6] = biological target: CCR5 C-terminally tagged to SmBiT (human) (UniProt P51681)
[7] = biological target: T6, CCR6 C-terminally tagged to SmBiT (human) (UniProt P51684)
T6 sequence: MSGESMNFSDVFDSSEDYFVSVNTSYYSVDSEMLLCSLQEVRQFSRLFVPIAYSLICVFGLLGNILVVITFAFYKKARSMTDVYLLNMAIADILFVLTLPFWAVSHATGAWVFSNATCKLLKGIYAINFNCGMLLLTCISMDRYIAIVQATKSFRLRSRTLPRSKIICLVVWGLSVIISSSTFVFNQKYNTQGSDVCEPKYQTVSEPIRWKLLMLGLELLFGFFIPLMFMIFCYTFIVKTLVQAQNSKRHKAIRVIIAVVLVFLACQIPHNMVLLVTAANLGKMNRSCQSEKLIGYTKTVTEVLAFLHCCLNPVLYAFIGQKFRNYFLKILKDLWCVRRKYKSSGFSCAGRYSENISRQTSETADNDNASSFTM

[8] = biological target: CCR7 C-terminally tagged to SmBiT (human) (UniProt P32248)
[9] = biological target: CCR8 C-terminally tagged to SmBiT (human) (UniProt P51685)
[10] = biological target: T7, CCR9 C-terminally tagged to SmBiT (human) (UniProt P51686)
T7 sequence: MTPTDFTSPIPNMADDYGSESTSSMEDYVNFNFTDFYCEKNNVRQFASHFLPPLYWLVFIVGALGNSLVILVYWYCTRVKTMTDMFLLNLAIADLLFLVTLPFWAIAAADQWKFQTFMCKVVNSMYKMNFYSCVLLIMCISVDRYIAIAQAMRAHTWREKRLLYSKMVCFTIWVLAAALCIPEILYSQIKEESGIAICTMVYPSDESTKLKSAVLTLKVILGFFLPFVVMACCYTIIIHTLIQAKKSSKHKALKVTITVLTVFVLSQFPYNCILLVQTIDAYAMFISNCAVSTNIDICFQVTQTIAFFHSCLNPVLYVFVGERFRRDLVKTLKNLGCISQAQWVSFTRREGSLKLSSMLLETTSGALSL

[11] = biological target: CX3CR1 C-terminally tagged to SmBiT (human) (UniProt P49238)
[12] = biological target: CXCR5 C-terminally tagged to SmBiT (human) (UniProt P32302)
[13] = biological target: CXCR6 C-terminally tagged to SmBiT (human) (UniProt O00574)
[14] = biological target: T8, XCR1 C-terminally tagged to SmBiT (human) (UniProt P46094)
T8 sequence: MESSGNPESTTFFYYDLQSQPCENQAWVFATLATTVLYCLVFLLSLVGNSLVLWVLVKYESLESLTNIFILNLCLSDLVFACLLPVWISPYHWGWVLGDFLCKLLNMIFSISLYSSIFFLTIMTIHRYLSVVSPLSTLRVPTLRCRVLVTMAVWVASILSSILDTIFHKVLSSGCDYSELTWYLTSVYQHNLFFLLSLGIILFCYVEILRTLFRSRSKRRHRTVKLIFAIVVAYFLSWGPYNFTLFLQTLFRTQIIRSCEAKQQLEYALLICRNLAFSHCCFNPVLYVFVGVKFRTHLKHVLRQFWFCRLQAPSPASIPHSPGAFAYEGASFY

Measured: binding

Human β-arrestin-2 N-terminally fused to LgBiT (from UniProt P32121 1-409)
binds: all assays above
